# Substitutions are numbered along the chain they refer to. This is one part of the list. For part of these data: At the low end of the ranking, values are background and their order means little. For part of these data: The exact form of the protein is not confirmed.
# Assays:
# Settings in all cases: yeast three-hybrid, YBZ-1, SC-Leu-His + 0.5 mM 3-AT, 4 days
# [1] = biological target: T1, PUM1 PUF domain R2-VFQ R3-THE R4-TFR N899V + Y900F + C935T + R936H + Q939E + N971T + H972F + Q975R (UniProt Q14671)
# T1 sequence: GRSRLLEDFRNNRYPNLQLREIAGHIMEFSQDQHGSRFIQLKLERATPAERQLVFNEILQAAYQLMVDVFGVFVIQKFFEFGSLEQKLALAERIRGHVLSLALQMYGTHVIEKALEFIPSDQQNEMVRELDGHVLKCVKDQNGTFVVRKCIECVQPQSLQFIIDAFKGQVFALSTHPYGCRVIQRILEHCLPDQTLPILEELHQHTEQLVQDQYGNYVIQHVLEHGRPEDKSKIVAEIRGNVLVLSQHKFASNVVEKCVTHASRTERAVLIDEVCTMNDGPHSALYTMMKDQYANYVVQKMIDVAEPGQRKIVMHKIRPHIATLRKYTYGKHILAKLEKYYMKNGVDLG
# [2] = biological target: T2, PUM1 PUF domain R1-QFR R2-VFQ R7-NPG S863Q + R864F + Q867R + N899V + Y900F + S1079N + N1080P + E1083G (UniProt Q14671)
# T2 sequence: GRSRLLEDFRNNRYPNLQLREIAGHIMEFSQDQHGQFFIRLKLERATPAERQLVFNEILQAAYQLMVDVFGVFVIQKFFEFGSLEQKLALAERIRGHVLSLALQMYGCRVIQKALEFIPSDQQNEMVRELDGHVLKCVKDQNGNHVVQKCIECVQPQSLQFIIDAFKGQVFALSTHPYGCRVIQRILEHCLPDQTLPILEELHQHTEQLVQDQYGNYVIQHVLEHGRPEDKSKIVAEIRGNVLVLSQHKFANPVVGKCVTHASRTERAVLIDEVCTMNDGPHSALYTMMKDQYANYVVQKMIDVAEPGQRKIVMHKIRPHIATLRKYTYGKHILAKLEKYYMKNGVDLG
# [3] = biological target: T3, PUM1 PUF domain R6-SWD R7-NPG N1043S + Y1044W + Q1047D + S1079N + N1080P + E1083G (Homo sapiens) (UniProt Q14671)
# T3 sequence: T2 sequence with Q36S, F37R, R40Q, V72N, F73Y, N216S, Y217W, Q220D
# [4] = biological target: T4, PUM1 PUF domain R6-SWD R7-NPG N1043S + Y1044W + Q1047D + S1079N + N1080P + E1083G (UniProt Q14671)
# T4 sequence: T2 sequence with Q36S, F37R, R40Q, V72N, F73Y, N216S, Y217W, Q220D
# [5] = biological target: T5, PUM1 PUF domain R5-PHQ R6-SWD C1007P + R1008H + N1043S + Y1044W + Q1047D (UniProt Q14671)
# T5 sequence: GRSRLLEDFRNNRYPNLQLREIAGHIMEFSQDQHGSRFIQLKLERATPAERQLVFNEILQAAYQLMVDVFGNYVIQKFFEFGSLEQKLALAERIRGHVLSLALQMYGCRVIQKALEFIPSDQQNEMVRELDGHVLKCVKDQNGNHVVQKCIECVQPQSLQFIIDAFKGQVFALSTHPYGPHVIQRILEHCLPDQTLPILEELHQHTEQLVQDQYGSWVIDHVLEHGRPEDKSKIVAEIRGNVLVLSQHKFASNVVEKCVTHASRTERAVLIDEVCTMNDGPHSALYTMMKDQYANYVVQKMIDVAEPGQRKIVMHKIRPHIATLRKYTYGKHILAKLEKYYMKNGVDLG
# [6] = biological target: T6, PUM1 PUF domain R3-THE R4-TFR C935T + R936H + Q939E + N971T + H972F + Q975R (UniProt Q14671)
# T6 sequence: T1 sequence with V72N, F73Y
# [7] = biological target: T7, PUM1 PUF domain R3-THE R4-TFR R7-NPG C935T + R936H + Q939E + N971T + H972F + Q975R + S1079N + N1080P + E1083G (Homo sapiens) (UniProt Q14671)
# T7 sequence: T1 sequence with V72N, F73Y, S252N, N253P, E256G
sequence,measurement,setting,value
GGCUAGAACUAGUGGAUCCCCCGGCGCCCGGCGGCUCGAGCCCGGGUAAGAUCAAGUAGUCUGCAUGCCGCCGGGCGCCAUGCCUGCAGGUCGACUCUAGAAAACAUG,binding signal (log2 enrichment (interaction score)),[1],-6.74
GGCUAGAACUAGUGGAUCCCCCGGCGCCCGGCGGCUCGAGCCCGGGUAAGUUGAAGGCGUCUGCAUGCCGCCGGGCGCCAUGCCUGCAGGUCGACUCUAGAAAACAUG,binding signal (log2 enrichment (interaction score)),[1],-5.31
GGCUAGAACUAGUGGAUCCCCCGGCGCCCGGCGGCUCGAGCCCGGGUAAGCGUUUCUUGUCUGCAUGCCGCCGGGCGCCAUGCCUGCAGGUCGACUCUAGAAAACAUG,binding signal (log2 enrichment (interaction score)),[1],-5.63
GGCUAGAACUAGUGGAUCCCCCGGCGCCCGGCGGCUCGAGCCCGGGUAAGUAAAAUACGUCUGCAUGCCGCCGGGCGCCAUGCCUGCAGGUCGACUCUAGAAAACAUG,binding signal (log2 enrichment (interaction score)),[2],-5.69
same,binding signal (log2 enrichment (interaction score)),[3],-1.72
GGCUAGAACUAGUGGAUCCCCCGGCGCCCGGCGGCUCGAGCCCGGGUAAGUCGAAAUAGUCUGCAUGCCGCCGGGCGCCAUGCCUGCAGGUCGACUCUAGAAAACAUG,binding signal (log2 enrichment (interaction score)),[1],-5.7
GGCUAGAACUAGUGGAUCCCCCGGCGCCCGGCGGCUCGAGCCCGGGUAAGUCAAAAACGUCUGCAUGCCGCCGGGCGCCAUGCCUGCAGGUCGACUCUAGAAAACAUG,binding signal (log2 enrichment (interaction score)),[2],-5.63
same,binding signal (log2 enrichment (interaction score)),[3],-1.97
GGCUAGAACUAGUGGAUCCCCCGGCGCCCGGCGGCUCGAGCCCGGGUAAGUCAAAGACGUCUGCAUGCCGCCGGGCGCCAUGCCUGCAGGUCGACUCUAGAAAACAUG,binding signal (log2 enrichment (interaction score)),[1],-5.46
GGCUAGAACUAGUGGAUCCCCCGGCGCCCGGCGGCUCGAGCCCGGGUAAGUGAAACACGUCUGCAUGCCGCCGGGCGCCAUGCCUGCAGGUCGACUCUAGAAAACAUG,binding signal (log2 enrichment (interaction score)),[1],< -6.46
GGCUAGAACUAGUGGAUCCCCCGGCGCCCGGCGGCUCGAGCCCGGGUAAGCUUUAGACGUCUGCAUGCCGCCGGGCGCCAUGCCUGCAGGUCGACUCUAGAAAACAUG,binding signal (log2 enrichment (interaction score)),[2],-6.01
same,binding signal (log2 enrichment (interaction score)),[3],-1.58
GGCUAGAACUAGUGGAUCCCCCGGCGCCCGGCGGCUCGAGCCCGGGUAAGUUAACCACGUCUGCAUGCCGCCGGGCGCCAUGCCUGCAGGUCGACUCUAGAAAACAUG,binding signal (log2 enrichment (interaction score)),[1],-5.4
GGCUAGAACUAGUGGAUCCCCCGGCGCCCGGCGGCUCGAGCCCGGGUAAGUUGCCGCAGUCUGCAUGCCGCCGGGCGCCAUGCCUGCAGGUCGACUCUAGAAAACAUG,binding signal (log2 enrichment (interaction score)),[2],-5.19
same,binding signal (log2 enrichment (interaction score)),[4],-2.3
GGCUAGAACUAGUGGAUCCCCCGGCGCCCGGCGGCUCGAGCCCGGGUAAGUUGAGUACGUCUGCAUGCCGCCGGGCGCCAUGCCUGCAGGUCGACUCUAGAAAACAUG,binding signal (log2 enrichment (interaction score)),[1],-6.23
GGCUAGAACUAGUGGAUCCCCCGGCGCCCGGCGGCUCGAGCCCGGGUAAGUUGAUGAAGUCUGCAUGCCGCCGGGCGCCAUGCCUGCAGGUCGACUCUAGAAAACAUG,binding signal (log2 enrichment (interaction score)),[2],-6.46
same,binding signal (log2 enrichment (interaction score)),[5],-7.55
same,binding signal (log2 enrichment (interaction score)),[4],-2.01
GGCUAGAACUAGUGGAUCCCCCGGCGCCCGGCGGCUCGAGCCCGGGUAAGUUGAACUGGUCUGCAUGCCGCCGGGCGCCAUGCCUGCAGGUCGACUCUAGAAAACAUG,binding signal (log2 enrichment (interaction score)),[2],-3.93
same,binding signal (log2 enrichment (interaction score)),[5],< -7.63
same,binding signal (log2 enrichment (interaction score)),[4],-2.01
GGCUAGAACUAGUGGAUCCCCCGGCGCCCGGCGGCUCGAGCCCGGGUAAGUUGGACACGUCUGCAUGCCGCCGGGCGCCAUGCCUGCAGGUCGACUCUAGAAAACAUG,binding signal (log2 enrichment (interaction score)),[2],< -6.14
same,binding signal (log2 enrichment (interaction score)),[3],-0.89
GGCUAGAACUAGUGGAUCCCCCGGCGCCCGGCGGCUCGAGCCCGGGUAAGGUUUCCUCGUCUGCAUGCCGCCGGGCGCCAUGCCUGCAGGUCGACUCUAGAAAACAUG,binding signal (log2 enrichment (interaction score)),[1],-5.79
GGCUAGAACUAGUGGAUCCCCCGGCGCCCGGCGGCUCGAGCCCGGGUAAGUUCUCAACGUCUGCAUGCCGCCGGGCGCCAUGCCUGCAGGUCGACUCUAGAAAACAUG,binding signal (log2 enrichment (interaction score)),[2],-4.24
same,binding signal (log2 enrichment (interaction score)),[3],-0.86
GGCUAGAACUAGUGGAUCCCCCGGCGCCCGGCGGCUCGAGCCCGGGUAAGUUGACCAGGUCUGCAUGCCGCCGGGCGCCAUGCCUGCAGGUCGACUCUAGAAAACAUG,binding signal (log2 enrichment (interaction score)),[2],-4.65
same,binding signal (log2 enrichment (interaction score)),[4],-2
GGCUAGAACUAGUGGAUCCCCCGGCGCCCGGCGGCUCGAGCCCGGGUAAGGUGAGGCAGUCUGCAUGCCGCCGGGCGCCAUGCCUGCAGGUCGACUCUAGAAAACAUG,binding signal (log2 enrichment (interaction score)),[2],-5.88
same,binding signal (log2 enrichment (interaction score)),[3],-1.1
GGCUAGAACUAGUGGAUCCCCCGGCGCCCGGCGGCUCGAGCCCGGGUAAGCUUGCGUCGUCUGCAUGCCGCCGGGCGCCAUGCCUGCAGGUCGACUCUAGAAAACAUG,binding signal (log2 enrichment (interaction score)),[1],-4.83
same,binding signal (log2 enrichment (interaction score)),[6],-5.56
same,binding signal (log2 enrichment (interaction score)),[7],-1.92
GGCUAGAACUAGUGGAUCCCCCGGCGCCCGGCGGCUCGAGCCCGGGUAAGUUUUCGUUGUCUGCAUGCCGCCGGGCGCCAUGCCUGCAGGUCGACUCUAGAAAACAUG,binding signal (log2 enrichment (interaction score)),[1],-5.65
same,binding signal (log2 enrichment (interaction score)),[6],< -6.79
same,binding signal (log2 enrichment (interaction score)),[7],< -1.48
GGCUAGAACUAGUGGAUCCCCCGGCGCCCGGCGGCUCGAGCCCGGGUAAGUUUCCGAGGUCUGCAUGCCGCCGGGCGCCAUGCCUGCAGGUCGACUCUAGAAAACAUG,binding signal (log2 enrichment (interaction score)),[1],-5.99
same,binding signal (log2 enrichment (interaction score)),[6],-6.78
GGCUAGAACUAGUGGAUCCCCCGGCGCCCGGCGGCUCGAGCCCGGGUAAGUCUUAGUGGUCUGCAUGCCGCCGGGCGCCAUGCCUGCAGGUCGACUCUAGAAAACAUG,binding signal (log2 enrichment (interaction score)),[1],-6.16
same,binding signal (log2 enrichment (interaction score)),[6],-6.45
GGCUAGAACUAGUGGAUCCCCCGGCGCCCGGCGGCUCGAGCCCGGGUAAGUUUACUUGGUCUGCAUGCCGCCGGGCGCCAUGCCUGCAGGUCGACUCUAGAAAACAUG,binding signal (log2 enrichment (interaction score)),[1],-5.75
same,binding signal (log2 enrichment (interaction score)),[6],-7.7
GGCUAGAACUAGUGGAUCCCCCGGCGCCCGGCGGCUCGAGCCCGGGUAAGUUUUGGUCGUCUGCAUGCCGCCGGGCGCCAUGCCUGCAGGUCGACUCUAGAAAACAUG,binding signal (log2 enrichment (interaction score)),[1],-6.09
same,binding signal (log2 enrichment (interaction score)),[6],< -6.83
GGCUAGAACUAGUGGAUCCCCCGGCGCCCGGCGGCUCGAGCCCGGGUAAGUGCUCACUGUCUGCAUGCCGCCGGGCGCCAUGCCUGCAGGUCGACUCUAGAAAACAUG,binding signal (log2 enrichment (interaction score)),[1],-6.12
same,binding signal (log2 enrichment (interaction score)),[6],< -7.22
same,binding signal (log2 enrichment (interaction score)),[7],-1.84
GGCUAGAACUAGUGGAUCCCCCGGCGCCCGGCGGCUCGAGCCCGGGUAAGUGUCCGUCGUCUGCAUGCCGCCGGGCGCCAUGCCUGCAGGUCGACUCUAGAAAACAUG,binding signal (log2 enrichment (interaction score)),[1],-5.25
same,binding signal (log2 enrichment (interaction score)),[6],-7.3
GGCUAGAACUAGUGGAUCCCCCGGCGCCCGGCGGCUCGAGCCCGGGUAAGCGUAGGUAGUCUGCAUGCCGCCGGGCGCCAUGCCUGCAGGUCGACUCUAGAAAACAUG,binding signal (log2 enrichment (interaction score)),[1],-5.62
same,binding signal (log2 enrichment (interaction score)),[6],-7.51
GGCUAGAACUAGUGGAUCCCCCGGCGCCCGGCGGCUCGAGCCCGGGUAAGUGAAGCCGGUCUGCAUGCCGCCGGGCGCCAUGCCUGCAGGUCGACUCUAGAAAACAUG,binding signal (log2 enrichment (interaction score)),[1],-4.83
same,binding signal (log2 enrichment (interaction score)),[6],-5.12

# 2 records drawn at random from those above:
sequence,measurement,setting,value
GGCUAGAACUAGUGGAUCCCCCGGCGCCCGGCGGCUCGAGCCCGGGUAAGUUGAACUGGUCUGCAUGCCGCCGGGCGCCAUGCCUGCAGGUCGACUCUAGAAAACAUG,binding signal (log2 enrichment (interaction score)),[2],-3.93
GGCUAGAACUAGUGGAUCCCCCGGCGCCCGGCGGCUCGAGCCCGGGUAAGUGAAACACGUCUGCAUGCCGCCGGGCGCCAUGCCUGCAGGUCGACUCUAGAAAACAUG,binding signal (log2 enrichment (interaction score)),[1],< -6.46

# Reference: PMC8384837
